PubChem BioAssay AID1224827 | NIAID, 2016

- Purpose: 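Identify regulators of the macrophage TNF-alpha response to bacterial LPS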 (follow-up of hits)
- Cells: RAW264.7 G9 mouse macrophage reporter clone
- Knock-down reagent: single siRNA against mouse genes, 100 nM siRNA
- Timing: siRNA for 2 days, then LPS about 16 h
- Challenge: bacterial lipopolysaccharide (LPS), 10 ng/ml, cells fixed after overnight (about 16 h) stimulation
- Read-out: 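TNF promoter reporter red fluorescence in nuclei, background subtracted, normalised per plate and to non-targeting control siRNA, as z-scores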
- Scale: TNF reporter z-score, mean and TNF reporter z-score: higher = stronger Tnf promoter reporter signal; gene median z, three same-vendor siRNAs: higher = stronger Tnf reporter signal for the gene
- Hit rule: 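Active siRNA: replicate-mean z-score of 2 or more, or -2 or less; no calls for control wells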
The deposit covers about 3,800 reagents; shown is a random part of them. Over the whole deposit, about 2,200 (57%) got an active call. 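Active means a strong reporter change in either direction; calls are per siRNA, not per gene; qiagen siRNAs gave weaker effects.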 Unmarked entries are inactive. The numbers tell different reagents against one gene apart. Further read-outs or replicates are left out here. Reagent sequences are not shown.

The first 3 records, to show the layout:
no.	Target gene	siRNA no.	TNF reporter z-score, mean	gene median z, three same-vendor siRNAs	TNF reporter z-score, repeat 1
1	Hoxc8	1	2.25 (active)	-3.54	1.6
2	Hoxc8	2	-3.76 (active)	-3.54	-3.8
3	Hoxc8	3	-3.83 (active)	-3.54	-3.35

Main list, from the first entry:
no.	Target gene	siRNA no.	TNF reporter z-score, mean	gene median z, three same-vendor siRNAs	TNF reporter z-score, repeat 1
1	Hoxc8	1	2.25 (active)	-3.54	1.6
2	Hoxc8	2	-3.76 (active)	-3.54	-3.8
3	Hoxc8	3	-3.83 (active)	-3.54	-3.35
4	Hoxc8	4	5.22 (active)	3.08	8.55
5	Hoxc8	5	2.94 (active)	3.08	4.27
6	Hoxc8	6	1.92	3.08	4.39
7	P2ry4	1	3.06 (active)	1.36	1.08
8	P2ry4	2	2.46 (active)	1.36	1.65
9	P2ry4	3	-3.71 (active)	1.36	-2.74
10	P2ry4	4	3.31 (active)	-2.28	5.98
11	P2ry4	5	-2.28 (active)	-2.28	-2.72
12	P2ry4	6	-4.15 (active)	-2.28	-5.19
13	Rassf8	1	0.461	-3.46	-1.16
14	Rassf8	2	-3.46 (active)	-3.46	-3.15
15	Rassf8	3	-4.28 (active)	-3.46	-4.11
16	Rassf8	4	1.13	-0.96	3.23
17	Rassf8	5	-0.507	-0.96	-0.0712
18	Rassf8	6	-1.08	-0.96	-1.06
19	Pabpn1	1	-2.27 (active)	-4.01	-3.08
20	Pabpn1	2	-4.32 (active)	-4.01	-4.88
21	Pabpn1	3	-4.46 (active)	-4.01	-4.67
22	Pabpn1	4	-1.08	-2.18	0.134
23	Pabpn1	5	-1.52	-2.18	-0.98
24	Pabpn1	6	-3.61 (active)	-2.18	-3.9
25	Folr1	1	2.1 (active)	0.619	0.0746
26	Folr1	2	0.44	0.619	-0.712
27	Folr1	3	-0.316	0.619	-1.8
28	Folr1	4	-0.016	-1.23	0.941
29	Folr1	5	-0.585	-1.23	0.309
30	Folr1	6	-3.25 (active)	-1.23	-3.67
31	Slc38a9	1	-0.82	-1.52	-1.49
32	Slc38a9	2	-1.51	-1.52	-1.55
33	Slc38a9	3	-3.99 (active)	-1.52	-3.95
34	Tnfrsf17	1	0.467	-2.36	-0.261
35	Tnfrsf17	2	-2.36 (active)	-2.36	-2.18
36	Tnfrsf17	3	-3.99 (active)	-2.36	-3.81
37	Tnfrsf17	4	0.683	-0.579	2.11
38	Tnfrsf17	5	-0.148	-0.579	2.23
39	Tnfrsf17	6	-0.947	-0.579	-0.412
